Measurements taken from patent publication US20060094101A1.
Results are given in words; binding and its absence hold for the method and conditions named. Binding seen in cells or lysates may run through a third protein. Some binding calls cover weakened binding; strength is not graded here. Tags and fused reporters may be left off the sequences shown.

Protein sequences, listed by entry. Tags and fused reporters are not part of them.
UniProt P49137: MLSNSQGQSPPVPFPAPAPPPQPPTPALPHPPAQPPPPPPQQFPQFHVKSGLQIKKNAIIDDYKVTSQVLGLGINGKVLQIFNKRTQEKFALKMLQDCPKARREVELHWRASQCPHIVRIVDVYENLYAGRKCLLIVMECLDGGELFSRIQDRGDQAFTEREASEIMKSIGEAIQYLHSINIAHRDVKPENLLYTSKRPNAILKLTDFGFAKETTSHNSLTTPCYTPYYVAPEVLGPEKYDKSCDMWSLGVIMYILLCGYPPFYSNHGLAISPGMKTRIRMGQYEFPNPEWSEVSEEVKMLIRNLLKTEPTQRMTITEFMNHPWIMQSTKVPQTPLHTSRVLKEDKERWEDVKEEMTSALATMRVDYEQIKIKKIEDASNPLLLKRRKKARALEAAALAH

What was measured:
MYC-tagged MK2 [1] = target: MYC-tagged MK2 (UniProt P49137); experiment: co-immunoprecipitation from 293T cells, unstimulated or stimulated with anisomycin, IP anti-V5, blot anti-MYC
MYC-tagged MK2 [2] = target: MYC-tagged MK2 (UniProt P49137); experiment: co-immunoprecipitation from 293T cells, IP anti-V5, blot anti-Myc (FIG. 10A)

binding (MYC-tagged MK2 [1]): binds
binding (MYC-tagged MK2 [2]): binds
B1: V5-tagged Shc (V5-p66 Shc A) (protein, not shown: small tags and cut ends)
chain: MDLLPPKPKYNPLRNESLSSLEEGASGSTPPEELPSPSASSLGPILPPLPGDDSPLPCVPSFPRMSNLKLANPAGGPWGLKGSQERLLKMGKGVQGQPFGLRPLAPPPDMNKLSGGGGRRTRVEGGQLGGEEWTRHGSFVNKPTRGWLHPNDKVMGPGVSYLVRYMGCVEVLQSMRALDFNTRTQVTREAISLVCEAVPGAKGATRRRKPCSRPLSSILGRSNLKFAGMPITLTVSTSSLNLMAADCKQIIANHHMQSISFASGGDPDTAEYVAYVAKDPVNQRACHILECPEGLAQDVISTIGQAFELRFKQYLRNPPKLVTPHDRMAGFDGSAWDEEEEEPPDHQYYNDFPGKEPPLGGVVDMRLREGAARPTLPSAQMSSHLGATLPIGQHAAGDHEVRKQMLPPPPCPGRELFDDPSYVNIQNLDKARQAGGGAGPPNPSLNGSAPRDLFDMKPFEDALRVPPPPQSMSMAEQLQGEPWFHGKLSRREAEALLQLNGDFLVRESTTTPGQYVLTGLQSGQPKHLLLVDPEGVVRTKDHRFESVSHLISYHMDNHLPIISAGSELCLQQPVDRKV
